The text below walks through data of PMC6684583.

Chains of the proteins cited; added tags and fusions are not shown.
UniProt P17426: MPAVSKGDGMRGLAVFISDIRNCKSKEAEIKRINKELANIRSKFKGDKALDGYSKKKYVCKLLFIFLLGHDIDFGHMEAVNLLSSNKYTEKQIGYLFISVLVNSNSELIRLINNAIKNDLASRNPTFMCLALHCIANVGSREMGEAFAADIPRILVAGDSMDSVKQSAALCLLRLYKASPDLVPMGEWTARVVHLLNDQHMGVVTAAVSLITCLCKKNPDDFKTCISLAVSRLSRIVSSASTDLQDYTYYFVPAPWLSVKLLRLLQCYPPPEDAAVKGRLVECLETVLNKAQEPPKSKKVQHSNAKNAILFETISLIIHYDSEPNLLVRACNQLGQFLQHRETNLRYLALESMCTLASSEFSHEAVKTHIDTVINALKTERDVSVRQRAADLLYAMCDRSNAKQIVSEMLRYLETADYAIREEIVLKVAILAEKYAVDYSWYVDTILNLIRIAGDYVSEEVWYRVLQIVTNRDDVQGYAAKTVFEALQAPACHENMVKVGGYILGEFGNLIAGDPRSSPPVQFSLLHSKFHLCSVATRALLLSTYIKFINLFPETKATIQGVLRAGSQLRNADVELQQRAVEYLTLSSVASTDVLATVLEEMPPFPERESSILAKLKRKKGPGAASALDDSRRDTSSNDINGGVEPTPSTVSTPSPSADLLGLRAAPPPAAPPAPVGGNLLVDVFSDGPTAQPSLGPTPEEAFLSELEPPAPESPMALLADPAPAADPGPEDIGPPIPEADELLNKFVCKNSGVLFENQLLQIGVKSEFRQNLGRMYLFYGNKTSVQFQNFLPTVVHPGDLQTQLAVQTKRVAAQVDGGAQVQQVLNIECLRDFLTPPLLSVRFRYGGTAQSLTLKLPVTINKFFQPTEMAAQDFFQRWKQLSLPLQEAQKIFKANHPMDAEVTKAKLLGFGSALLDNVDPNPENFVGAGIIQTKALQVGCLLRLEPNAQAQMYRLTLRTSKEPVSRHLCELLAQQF
UniProt P17427: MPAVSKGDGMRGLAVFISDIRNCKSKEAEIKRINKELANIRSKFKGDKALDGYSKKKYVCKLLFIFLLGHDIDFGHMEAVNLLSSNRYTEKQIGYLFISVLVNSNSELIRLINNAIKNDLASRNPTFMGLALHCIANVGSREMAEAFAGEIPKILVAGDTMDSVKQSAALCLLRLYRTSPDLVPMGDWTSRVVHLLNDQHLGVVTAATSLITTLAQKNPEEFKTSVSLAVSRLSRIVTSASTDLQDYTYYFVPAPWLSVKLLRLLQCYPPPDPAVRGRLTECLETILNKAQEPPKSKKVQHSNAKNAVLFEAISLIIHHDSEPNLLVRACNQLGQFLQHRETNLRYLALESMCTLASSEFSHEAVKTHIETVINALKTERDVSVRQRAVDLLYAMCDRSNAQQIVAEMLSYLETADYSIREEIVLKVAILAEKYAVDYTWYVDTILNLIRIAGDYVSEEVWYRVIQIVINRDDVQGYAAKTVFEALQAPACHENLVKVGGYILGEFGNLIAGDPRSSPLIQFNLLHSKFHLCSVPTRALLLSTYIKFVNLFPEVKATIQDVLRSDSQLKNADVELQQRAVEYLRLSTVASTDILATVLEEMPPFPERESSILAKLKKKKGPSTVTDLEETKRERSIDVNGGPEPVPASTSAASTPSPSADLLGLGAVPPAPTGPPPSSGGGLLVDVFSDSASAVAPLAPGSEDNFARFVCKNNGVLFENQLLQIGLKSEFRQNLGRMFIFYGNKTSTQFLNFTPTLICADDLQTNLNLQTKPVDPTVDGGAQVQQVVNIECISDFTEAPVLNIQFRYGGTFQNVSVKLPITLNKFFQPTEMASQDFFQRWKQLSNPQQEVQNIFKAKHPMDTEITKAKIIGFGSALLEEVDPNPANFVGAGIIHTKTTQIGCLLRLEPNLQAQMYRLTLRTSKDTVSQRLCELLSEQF
UniProt Q9QWY8: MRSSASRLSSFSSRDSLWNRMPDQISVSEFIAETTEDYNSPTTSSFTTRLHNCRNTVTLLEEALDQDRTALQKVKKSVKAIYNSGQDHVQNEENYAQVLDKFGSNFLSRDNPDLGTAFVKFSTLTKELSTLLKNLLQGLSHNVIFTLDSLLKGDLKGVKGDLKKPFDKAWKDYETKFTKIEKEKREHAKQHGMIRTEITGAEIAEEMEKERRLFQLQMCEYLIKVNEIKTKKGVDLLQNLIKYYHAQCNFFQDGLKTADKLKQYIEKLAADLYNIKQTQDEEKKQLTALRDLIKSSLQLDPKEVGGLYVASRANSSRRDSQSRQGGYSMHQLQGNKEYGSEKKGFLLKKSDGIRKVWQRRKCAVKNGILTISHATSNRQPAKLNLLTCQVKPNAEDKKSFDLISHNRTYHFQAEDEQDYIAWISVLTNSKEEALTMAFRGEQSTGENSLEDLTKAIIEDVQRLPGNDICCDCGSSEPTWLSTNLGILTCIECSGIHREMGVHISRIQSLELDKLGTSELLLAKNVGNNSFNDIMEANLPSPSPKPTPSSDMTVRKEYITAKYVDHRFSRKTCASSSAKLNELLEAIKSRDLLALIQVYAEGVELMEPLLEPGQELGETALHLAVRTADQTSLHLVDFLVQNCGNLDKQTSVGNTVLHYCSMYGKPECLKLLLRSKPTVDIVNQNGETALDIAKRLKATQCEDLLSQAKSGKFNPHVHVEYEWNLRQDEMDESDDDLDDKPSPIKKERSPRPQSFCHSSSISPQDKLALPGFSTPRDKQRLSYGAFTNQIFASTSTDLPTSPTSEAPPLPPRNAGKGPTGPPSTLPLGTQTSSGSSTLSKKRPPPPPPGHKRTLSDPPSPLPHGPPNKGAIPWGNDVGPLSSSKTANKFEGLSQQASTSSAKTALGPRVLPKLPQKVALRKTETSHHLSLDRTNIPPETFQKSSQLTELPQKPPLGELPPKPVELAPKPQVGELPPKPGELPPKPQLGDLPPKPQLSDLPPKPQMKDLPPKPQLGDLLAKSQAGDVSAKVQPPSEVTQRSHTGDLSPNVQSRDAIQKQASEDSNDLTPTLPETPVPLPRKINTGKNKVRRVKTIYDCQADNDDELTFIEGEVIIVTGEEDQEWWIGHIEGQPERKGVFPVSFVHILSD
UniProt Q9Z0R4: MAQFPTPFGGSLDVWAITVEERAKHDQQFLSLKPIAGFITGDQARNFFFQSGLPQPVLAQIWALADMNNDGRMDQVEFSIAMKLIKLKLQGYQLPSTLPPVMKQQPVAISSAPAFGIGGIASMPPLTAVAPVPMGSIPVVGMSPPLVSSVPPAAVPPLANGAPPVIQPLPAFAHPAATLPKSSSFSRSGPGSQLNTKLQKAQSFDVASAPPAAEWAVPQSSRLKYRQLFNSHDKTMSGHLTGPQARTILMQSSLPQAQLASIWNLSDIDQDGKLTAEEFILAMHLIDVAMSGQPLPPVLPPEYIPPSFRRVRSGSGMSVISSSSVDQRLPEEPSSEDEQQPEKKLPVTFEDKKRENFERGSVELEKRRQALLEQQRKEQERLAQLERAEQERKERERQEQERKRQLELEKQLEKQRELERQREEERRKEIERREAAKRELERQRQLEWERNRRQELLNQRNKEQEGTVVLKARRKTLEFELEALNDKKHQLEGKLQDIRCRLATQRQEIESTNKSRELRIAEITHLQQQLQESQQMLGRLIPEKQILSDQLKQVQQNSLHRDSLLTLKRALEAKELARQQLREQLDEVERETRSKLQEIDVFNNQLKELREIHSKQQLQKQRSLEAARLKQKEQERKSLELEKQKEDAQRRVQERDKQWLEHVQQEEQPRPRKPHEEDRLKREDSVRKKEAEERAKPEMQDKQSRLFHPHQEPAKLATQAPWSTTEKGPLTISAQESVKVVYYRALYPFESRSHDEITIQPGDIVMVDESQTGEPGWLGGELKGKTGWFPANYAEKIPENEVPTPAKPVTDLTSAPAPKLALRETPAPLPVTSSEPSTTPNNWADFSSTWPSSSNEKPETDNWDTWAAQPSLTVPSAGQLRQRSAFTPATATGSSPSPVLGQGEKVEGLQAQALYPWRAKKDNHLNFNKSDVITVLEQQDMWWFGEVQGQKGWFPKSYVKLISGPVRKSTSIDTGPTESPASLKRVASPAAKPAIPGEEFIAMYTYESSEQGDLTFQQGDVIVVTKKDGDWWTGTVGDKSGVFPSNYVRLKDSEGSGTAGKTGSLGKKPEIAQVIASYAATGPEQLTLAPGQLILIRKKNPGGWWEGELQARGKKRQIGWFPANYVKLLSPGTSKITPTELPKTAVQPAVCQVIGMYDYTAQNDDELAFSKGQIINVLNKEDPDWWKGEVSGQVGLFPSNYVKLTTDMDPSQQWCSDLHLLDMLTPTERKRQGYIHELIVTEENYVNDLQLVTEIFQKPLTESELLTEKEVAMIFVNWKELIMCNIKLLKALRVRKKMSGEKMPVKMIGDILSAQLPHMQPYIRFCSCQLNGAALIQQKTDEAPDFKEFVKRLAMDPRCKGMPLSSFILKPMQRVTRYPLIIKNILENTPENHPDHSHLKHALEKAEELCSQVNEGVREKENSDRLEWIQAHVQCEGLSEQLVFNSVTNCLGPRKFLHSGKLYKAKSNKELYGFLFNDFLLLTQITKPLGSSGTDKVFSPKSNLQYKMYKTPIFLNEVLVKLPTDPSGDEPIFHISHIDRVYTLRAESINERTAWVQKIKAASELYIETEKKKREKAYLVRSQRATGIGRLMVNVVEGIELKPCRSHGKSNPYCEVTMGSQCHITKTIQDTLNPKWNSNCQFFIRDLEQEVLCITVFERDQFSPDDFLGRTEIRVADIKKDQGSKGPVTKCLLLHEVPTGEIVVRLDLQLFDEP

Sequences and labels used below:
T1: AIDA-1 (APP intracellular domain associated 1), encoded by Anks1b (mouse (endogenous in mouse brain)) (UniProt Q8BIZ1)
T1 sequence: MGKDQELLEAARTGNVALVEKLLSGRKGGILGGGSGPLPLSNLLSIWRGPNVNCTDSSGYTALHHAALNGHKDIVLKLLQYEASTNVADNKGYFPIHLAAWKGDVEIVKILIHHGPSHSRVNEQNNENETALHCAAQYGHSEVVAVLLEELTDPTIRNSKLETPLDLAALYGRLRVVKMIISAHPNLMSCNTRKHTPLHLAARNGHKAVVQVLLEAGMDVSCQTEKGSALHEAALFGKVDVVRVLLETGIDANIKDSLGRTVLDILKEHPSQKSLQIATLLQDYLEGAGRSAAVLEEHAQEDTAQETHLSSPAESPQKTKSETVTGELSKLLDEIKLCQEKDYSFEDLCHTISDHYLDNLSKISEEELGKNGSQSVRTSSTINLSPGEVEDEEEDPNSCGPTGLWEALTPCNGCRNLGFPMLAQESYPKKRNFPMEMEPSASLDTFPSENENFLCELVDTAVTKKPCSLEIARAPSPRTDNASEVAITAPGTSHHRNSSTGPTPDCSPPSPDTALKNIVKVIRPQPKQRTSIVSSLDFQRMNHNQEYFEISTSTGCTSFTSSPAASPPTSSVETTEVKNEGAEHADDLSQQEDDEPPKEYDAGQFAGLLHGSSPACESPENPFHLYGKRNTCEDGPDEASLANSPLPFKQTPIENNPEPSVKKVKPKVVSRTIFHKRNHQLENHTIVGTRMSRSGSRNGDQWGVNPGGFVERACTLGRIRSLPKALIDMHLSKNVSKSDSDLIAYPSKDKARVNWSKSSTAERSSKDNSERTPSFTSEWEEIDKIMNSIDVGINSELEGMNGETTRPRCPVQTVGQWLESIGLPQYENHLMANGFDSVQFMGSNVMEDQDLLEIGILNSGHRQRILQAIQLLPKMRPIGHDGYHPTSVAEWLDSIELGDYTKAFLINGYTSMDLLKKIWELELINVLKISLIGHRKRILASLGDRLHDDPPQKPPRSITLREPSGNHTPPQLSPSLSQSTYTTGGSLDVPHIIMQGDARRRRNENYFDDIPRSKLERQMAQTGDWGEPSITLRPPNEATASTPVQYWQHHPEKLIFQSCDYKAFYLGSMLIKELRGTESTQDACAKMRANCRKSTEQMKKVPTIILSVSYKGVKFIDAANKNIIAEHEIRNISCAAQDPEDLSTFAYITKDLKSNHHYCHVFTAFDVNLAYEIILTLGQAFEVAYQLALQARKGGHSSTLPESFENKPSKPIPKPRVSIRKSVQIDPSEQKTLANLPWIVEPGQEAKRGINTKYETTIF

B1: Git1 (protein, UniProt Q68FF6 1-770)
chain: MSRKGPRAEVCADCSAPDPGWASISRGVLVCDECCSVHRSLGRHISIVKHLRHSAWPPTLLQMVHTLASNGANSIWEHSLLDPAQVQSGRRKANPQDKVHPIKSEFIRAKYQMLAFVHKLPCRDDDGVTAKDLSKQLHSSVRTGNLETCLRLLSLGAQANFFHPEKGTTPLHVAAKAGQTLQAELLVVYGADPGSPDVNGRTPIDYARQAGHHELAERLVECQYELTDRLAFYLCGRKPDHKNGHYIIPQMADRSRQKCMSQSLDLSELAKAAKKKLQALSNRLFEELAMDVYDEVDRRENDAVWLATQNHSTLVTERSAVPFLPVNPEYSATRNQGRQKLARFNAREFATLIIDILSEAKRRQQGKSLSSPTDNLELSARSQSELDDQHDYDSVASDEDTDQEPLPSAGATRNNRARSMDSSDLSDGAVTLQEYLELKKALATSEAKVQQLMKVNSSLSDELRRLQREIHKLQAENLQLRQPPGPVPPPSLPSERAEHTLMGPGGSTHRRDRQAFSMYEPGSALKPFGGTPGDELATRLQPFHSTELEDDAIYSVHVPAGLYRIRKGVSASSVPFTPSSPLLSCSQEGSRHASKLSRHGSGADSDYENTQSGDPLLGLEGKRFLELSKEDELHPELESLDGDLDPGLPSTEDVILKTEQVTKNIQELLRAAQEFKHDSFVPCSEKIHLAVTEMASLFPKRPALEPVRSSLRLLNASAYRLQSECRKTVPPEPGAPVDFQLLTQQVIQCAYDIAKAAKQLVTITTREKKQ

Results are given in words; binding and its absence hold for the method and conditions named. In cells and extracts the contact can be indirect. Some entries that bind do so weakly or less than the wild type.

The assay addresses T1, AIDA-1 (APP intracellular domain associated 1), encoded by Anks1b (mouse (endogenous in mouse brain)). The assay is described as follows: co-IP; independent co-IP from mouse brain lysates, western blot; which protein was precipitated is not told. For orientation: Immunoblotting shows a protein as a band on a membrane.
For the molecule Ap2a1 (from UniProt P17426 1-977), the binding result was “binds”.
In the case of Ap2a2 (from UniProt P17427 1-938) it was “binds”; in that of Srgap2 (from UniProt Q91Z67 1-1071), “binds”.
With Asap1 (from UniProt Q9QWY8 1-1147), the binding entry is “binds”.
Under Itsn1 (from UniProt Q9Z0R4 1-1714) stands “binds”; under B1, “binds”.
